In patent US20080038286A1:
These are yes or no findings as the source states them, for the method shown. Some entries that bind do so weakly or less than the wild type.

By UniProt entry, the sequences of proteins in these tests, tags left out. Residues count along the entry.
UniProt Q9NNX6, residues 59-404: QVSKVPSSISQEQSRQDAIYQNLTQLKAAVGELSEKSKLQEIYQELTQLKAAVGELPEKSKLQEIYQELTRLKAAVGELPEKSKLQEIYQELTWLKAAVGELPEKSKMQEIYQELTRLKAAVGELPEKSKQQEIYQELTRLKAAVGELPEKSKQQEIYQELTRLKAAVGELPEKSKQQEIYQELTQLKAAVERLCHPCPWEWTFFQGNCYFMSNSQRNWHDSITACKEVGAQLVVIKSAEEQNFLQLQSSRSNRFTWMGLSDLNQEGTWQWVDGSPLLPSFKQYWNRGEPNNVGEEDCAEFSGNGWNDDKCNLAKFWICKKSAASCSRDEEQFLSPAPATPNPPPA

How the values were obtained:
[1] = target: HIV-1 gp120 of YU2 strain produced in mammalian cells (HIV-1 strain YU2) (UniProt P35961); assay: ELISA, DC-SIGN ECD coated on the plate, gp120 YU2 in solution
[2] = target: HIV-1 gp120 of YU2 strain produced in mammalian cells (HIV-1 strain YU2) (UniProt P35961); assay: ELISA, plate coated with DC-SIGN ECD, YU2 gp120 added in rising amounts (0.64-2000 ng)

DC-SIGN extracellular domain (ECD) recombinant protein, expressed in E. coli and refolded (from UniProt Q9NNX6 59-404) (receptor)
binding [1]: binds
binding [2]: binds
